Reference: PubChem BioAssay AID652054 (National Center for Advancing Translational Sciences (NCATS), 2013)
Hit rate of the full screen: of about 360,000 compounds, about 9,100 (2.5%) were called active. This list was built around the results that the source calls inconclusive (neither active nor inactive); the mix of calls is not that of the screen. Cut-off read from the data, not from the text of the source: active = max response below about -50%; inconclusive = no clear call, values can overlap the other calls; inactive = above that.

Amino acid sequences for entries named in this document (tags omitted).
UniProt P35462, whole entry, looked up: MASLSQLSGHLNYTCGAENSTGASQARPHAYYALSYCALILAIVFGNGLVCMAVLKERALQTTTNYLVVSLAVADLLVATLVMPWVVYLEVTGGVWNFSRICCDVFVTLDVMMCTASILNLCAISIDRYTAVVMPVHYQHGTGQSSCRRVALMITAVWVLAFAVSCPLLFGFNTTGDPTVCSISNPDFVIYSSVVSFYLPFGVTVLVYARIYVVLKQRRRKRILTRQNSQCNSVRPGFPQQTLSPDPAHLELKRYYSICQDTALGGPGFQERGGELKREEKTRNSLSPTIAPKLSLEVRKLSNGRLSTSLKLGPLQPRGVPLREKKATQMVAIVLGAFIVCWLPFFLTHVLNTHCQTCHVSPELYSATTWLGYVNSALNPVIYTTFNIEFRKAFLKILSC

Target: D(3) dopamine receptor (Homo sapiens) (UniProt P35462)
Assay: qHTS of D3 Dopamine Receptor Antagonist: qHTS
Conditions: D3R cells, DiscoveRx beta-arrestin luminescence, antagonist mode; active compounds read low
Outline: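 Cells expressing the human receptor were seeded at 1500 cells/well, incubated overnight at 37 degrees C in 5% CO2, then exposed to library compounds with dopamine controls for 90 minutes at 37 degrees C before luminescent detection.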
% is set by controls: 0 for no effect and ±100 for the full control effect.

Max response, negative = inhibition, inactive:
CN(Cc1ccc(C(F)(F)F)cc1)C(=O)c1ccc(Oc2ccccc2)cc1 2.05%
COC(=O)C1=C(C)N(Cc2ccccc2)C(=NCC2CC2)N[C@H]1c1ccccc1 -26.9%
CCN(CC)CCn1c(SCC(=O)Nc2cccc(OC)c2)nc2c(sc3ccccc32)c1=O -17.3%
CSc1cccc(NC(N)=O)c1 6.27%
CCOc1ccc(-c2csc(NC(=O)CSCC(=O)O)n2)c2ccccc12 84.9%
CCc1c(C)nc2cc(-c3ccc(OC)cc3)[nH]n2c1=O 12.2%
O=C(Oc1ccc(Cl)c2cccnc12)N1CCCCCC1 -0.127%
Cn1c(CN2CCCCC2)nc2cc(NC(=O)c3ccc(F)cc3)ccc21 -25.3%
CC1CCCC(NC(=O)c2cccs2)C1C (stereo not drawn) -2.2%
CC(=O)C[C@H]1SC[C@@H](C(C)C)N1S(=O)(=O)c1ccc(C)cc1 6.17%
COc1cccc(CN(C)CC(=O)Nc2cc(S(=O)(=O)N3CCCC3)ccc2Cl)c1OC 42.5%
O=C(O)c1ccccc1-c1ccccc1C(=O)Nc1nc2ccccc2s1 -2.32%
COc1cnc(-c2ccccc2)nc1Oc1cccc(C)c1C 15.5%
CCCc1cc2c(-c3ccccc3)cc(=O)oc2cc1OCc1ccc(C(=O)O)o1 0.387%
CN(C)C(=O)CCC(=O)N(C)CC1CCCN(CCc2ccc(F)cc2)C1 (stereo not drawn) -8.61%
c1ccc(-c2cc(NCCN3CCCCC3)c3ccccc3n2)cc1 -2.71%
Cc1c(C2(O)CCCCC2)[nH]c2cnccc12 0%

Max response, negative = inhibition, active:
CCOc1ccc([C@@H]2CC=C(C(=O)O)[C@H](c3ccc(Cl)cc3)N2S(=O)(=O)c2ccc(C)cc2)cc1 -72.8%
CS(=O)(=O)N(CC(=O)N1CCCCCC1)Cc1ccc(Cl)cc1 -78.4%
CN(C)C(CNc1ccc(C(F)(F)F)cn1)c1ccccc1 (stereo not drawn) -58.6%
Cc1occc1C(=O)NNC(=S)Nc1cccc([N+](=O)[O-])c1 -109%
CSc1cccc(CN2CCN(Cc3ccccc3)C(CCO)C2)c1 (stereo not drawn) -53.6%
O=C(c1ccccc1)c1cccn1CC(=O)N1CCc2ccccc2C1 -54%
O=c1[nH]c(CN2CCN(C/C=C/c3ccccc3)CC2)nc2cc(Cl)ccc12 -53.1%
O=C(CCOc1ccccc1)Nc1ccnn1C1CCN(CCc2ccccc2)CC1 -52.2%
Cc1ccc([N+](=O)[O-])c(OCCN2CCc3ccccc3C2)c1 -59.6%

Max response, negative = inhibition, inconclusive:
Cc1ccccc1N=C1SC(CC(=O)Nc2ccc3ccccc3c2)C(=O)N1Cc1ccccn1 (stereo not drawn) -32.3%
O=C(O)c1cc(Cl)c2ccccc2c1O -43.4%
Cc1ccc(CN2CC(C(=O)Nc3ccc4c(C)cc(=O)oc4c3)CC2=O)cc1 (stereo not drawn) -32.1%
COC(=O)C1=COC(OC2OC(CO)C(O)C(O)C2O)C2C1C=CC2(O)CO (stereo not drawn) -33.4%
O=[N+]([O-])c1ccc(C2Nc3cccc4cccc(c34)N2)cc1 -40.3%
CCOc1ccc(NC(=O)C(C)Oc2ccc(C#N)cc2)cc1S(=O)(=O)N1CCCC1 (stereo not drawn) -30.8%
Nc1nnc(CC(=O)N/N=C/c2ccccc2OCc2ccc(F)cc2)s1 -34.7%
CCn1c(Cc2ccccc2)nnc1SCC(=O)Nc1ccccc1 -33.1%
CC(C(=O)Nc1cccc([N+](=O)[O-])c1)n1nnc2ccccc21 (stereo not drawn) -49.5%
Oc1cccc(C=NCc2ccccc2)c1O -31%
O=C(Cn1cnc2c(nnn2-c2ccc(F)cc2)c1=O)NCc1ccco1 -30.6%
O=C(CCCc1ccccc1)Nc1ccnn1C1CCN(Cc2ccc(Cl)cc2)CC1 -42.5%
Cc1cc(NC(=O)C2CCCC2)n(-c2nc3ccccc3[nH]2)n1 -45.8%
COc1ccccc1CNC(=O)c1oc2ccccc2c1C -34.8%
COc1ccc([N+](=O)[O-])cc1N(CC(O)CN1CCCCC1)S(=O)(=O)c1ccc(C)cc1 (stereo not drawn) -41.1%
CCn1c(SCC(=O)NC2CCCc3ccccc32)nnc1-c1cccs1 (stereo not drawn) -32.8%
COc1cccc(NC(=O)c2cccnn2)c1 -40.8%
Cn1c(-c2ccc(F)cc2)cnc1NCc1ccc(F)cc1 -39.5%
COCCCNC(NC(=O)c1ccc(Cl)cc1)C(Cl)(Cl)Cl (stereo not drawn) -31.9%
COC(=O)N1C(=O)[C@@](c2ccccc2)(C2CCCC2)N1C(=O)OC -43.4%
Cn1c(=O)c2c(nc(NCCNC(=O)c3ccco3)n2Cc2ccccc2Cl)n(C)c1=O -31.5%
Cc1ccc(C(=O)NC(Cc2c[nH]c3ccccc23)C(=O)O)o1 (stereo not drawn) -49.6%
O=C(CCN1CCN(c2ccccn2)CC1)Nc1ccc(F)cc1 -44.5%
Cc1[nH]c2ccccc2c1C(c1ccncc1)N1CCN(c2ccc(F)cc2)CC1 (stereo not drawn) -39%
CCc1cccc2c(C(=O)C(NCCCOC)c3ccccc3)c[nH]c12 (stereo not drawn) -30%
c1cnn2c(-c3ccc4c(c3)CCO4)cnc2c1 -43.8%
COc1cc(CN2CCC(C)CC2)ccc1OCc1ccccc1 -45.9%
CCCCCC(=O)N1C[C@H](O)[C@@H](n2cc(-c3ccc(F)cc3)nn2)C[C@@H]1c1ccc(Cl)cc1 -30.5%
O=C(CC1C(=O)NCCN1C(=O)Nc1ccccc1)Nc1cccc(C(F)(F)F)c1 (stereo not drawn) -46.5%
COc1ccccc1OCCOC(=O)Nc1ccccc1 -46%
O=C(c1sc2ccccc2c1Cl)N1CCN(CCc2ccccn2)CC1 -42.2%
CN1CCN(c2ccc(S(=O)(=O)Nc3ccccc3)cc2[N+](=O)[O-])CC1 -44%

Five consecutive records from above, for reference:
Max response, negative = inhibition, inconclusive:
Cn1c(=O)c2c(nc(NCCNC(=O)c3ccco3)n2Cc2ccccc2Cl)n(C)c1=O -31.5%
Cc1ccc(C(=O)NC(Cc2c[nH]c3ccccc23)C(=O)O)o1 (stereo not drawn) -49.6%
O=C(CCN1CCN(c2ccccn2)CC1)Nc1ccc(F)cc1 -44.5%
Cc1[nH]c2ccccc2c1C(c1ccncc1)N1CCN(c2ccc(F)cc2)CC1 (stereo not drawn) -39%
CCc1cccc2c(C(=O)C(NCCCOC)c3ccccc3)c[nH]c12 (stereo not drawn) -30%
